Assay results from PMC5117210.
Results are given in words; binding and its absence hold for the method and conditions named. Binding seen in cells or lysates may run through a third protein. Some results given as binding are weak or reduced against the parent protein; the word gives no strength. Sequences can lack the tags named with a protein. Values belong to the molecule of their own block, whether it stands above or below them.

The chains behind the UniProt entries cited, without tags or fusion partners. Where a name states a change or a piece, a line headed by the entry shows the natural chain unless it says otherwise. A line that says so, or that is headed by a name, gives the form on record, which may keep a tag or linker. Residues count along the entry.
UniProt O43157: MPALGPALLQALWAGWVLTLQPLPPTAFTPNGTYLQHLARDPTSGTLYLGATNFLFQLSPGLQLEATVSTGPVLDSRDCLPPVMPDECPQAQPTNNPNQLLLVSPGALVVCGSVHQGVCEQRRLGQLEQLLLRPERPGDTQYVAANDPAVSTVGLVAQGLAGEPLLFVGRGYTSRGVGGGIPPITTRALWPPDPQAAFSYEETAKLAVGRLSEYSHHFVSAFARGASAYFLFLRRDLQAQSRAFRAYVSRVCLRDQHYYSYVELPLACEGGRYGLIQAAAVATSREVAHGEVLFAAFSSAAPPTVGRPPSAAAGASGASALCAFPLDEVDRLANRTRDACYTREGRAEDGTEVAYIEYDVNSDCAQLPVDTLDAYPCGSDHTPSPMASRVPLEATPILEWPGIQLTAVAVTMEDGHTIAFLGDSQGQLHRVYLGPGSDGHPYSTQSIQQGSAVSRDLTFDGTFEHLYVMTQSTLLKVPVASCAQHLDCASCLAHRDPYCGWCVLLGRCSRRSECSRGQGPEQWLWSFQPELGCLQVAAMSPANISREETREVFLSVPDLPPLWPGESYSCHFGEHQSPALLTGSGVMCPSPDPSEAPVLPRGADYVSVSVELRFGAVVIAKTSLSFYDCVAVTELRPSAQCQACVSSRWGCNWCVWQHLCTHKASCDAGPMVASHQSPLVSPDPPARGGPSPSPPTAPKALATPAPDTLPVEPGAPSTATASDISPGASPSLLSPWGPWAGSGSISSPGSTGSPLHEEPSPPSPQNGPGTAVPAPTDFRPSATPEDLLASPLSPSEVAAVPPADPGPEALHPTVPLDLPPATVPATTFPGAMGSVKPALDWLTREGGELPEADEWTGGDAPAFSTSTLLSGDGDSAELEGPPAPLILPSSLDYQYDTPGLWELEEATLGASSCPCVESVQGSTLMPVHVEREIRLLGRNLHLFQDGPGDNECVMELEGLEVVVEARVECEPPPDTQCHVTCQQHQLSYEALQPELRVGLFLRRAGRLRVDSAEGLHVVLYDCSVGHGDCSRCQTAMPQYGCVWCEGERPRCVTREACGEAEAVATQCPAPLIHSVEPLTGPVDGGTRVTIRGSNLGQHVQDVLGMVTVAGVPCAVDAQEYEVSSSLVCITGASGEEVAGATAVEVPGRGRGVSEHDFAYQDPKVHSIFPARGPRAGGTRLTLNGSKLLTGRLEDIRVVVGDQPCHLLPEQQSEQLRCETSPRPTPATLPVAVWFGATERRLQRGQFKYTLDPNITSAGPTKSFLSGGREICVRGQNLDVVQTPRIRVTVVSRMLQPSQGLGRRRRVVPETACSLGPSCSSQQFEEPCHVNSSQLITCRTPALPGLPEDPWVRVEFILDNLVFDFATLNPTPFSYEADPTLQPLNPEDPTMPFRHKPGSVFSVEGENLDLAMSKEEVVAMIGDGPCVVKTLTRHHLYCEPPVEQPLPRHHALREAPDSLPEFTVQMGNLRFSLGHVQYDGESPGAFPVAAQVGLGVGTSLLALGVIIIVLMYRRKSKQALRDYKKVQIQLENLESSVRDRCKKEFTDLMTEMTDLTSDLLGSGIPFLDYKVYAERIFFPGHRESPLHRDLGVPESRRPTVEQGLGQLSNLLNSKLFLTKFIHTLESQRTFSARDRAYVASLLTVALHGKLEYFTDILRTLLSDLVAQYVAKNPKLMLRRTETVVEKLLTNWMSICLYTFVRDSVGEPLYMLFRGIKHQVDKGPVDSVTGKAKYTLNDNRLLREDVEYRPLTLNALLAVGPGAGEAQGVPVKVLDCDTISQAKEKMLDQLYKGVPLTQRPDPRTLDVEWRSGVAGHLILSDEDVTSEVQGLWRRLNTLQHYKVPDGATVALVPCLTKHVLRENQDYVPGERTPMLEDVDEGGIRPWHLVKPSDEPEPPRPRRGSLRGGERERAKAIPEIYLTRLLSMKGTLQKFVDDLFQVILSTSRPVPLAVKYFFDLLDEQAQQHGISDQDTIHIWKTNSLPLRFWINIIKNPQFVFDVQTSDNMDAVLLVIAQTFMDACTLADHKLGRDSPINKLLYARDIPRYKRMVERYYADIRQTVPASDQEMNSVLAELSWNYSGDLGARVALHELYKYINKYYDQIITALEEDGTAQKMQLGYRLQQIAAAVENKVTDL
HA-tagged plexin-B1 cytoplasmic domain (plexin-B1-cyto): residues 1512-2135 of O43157
UniProt Q9ULL4: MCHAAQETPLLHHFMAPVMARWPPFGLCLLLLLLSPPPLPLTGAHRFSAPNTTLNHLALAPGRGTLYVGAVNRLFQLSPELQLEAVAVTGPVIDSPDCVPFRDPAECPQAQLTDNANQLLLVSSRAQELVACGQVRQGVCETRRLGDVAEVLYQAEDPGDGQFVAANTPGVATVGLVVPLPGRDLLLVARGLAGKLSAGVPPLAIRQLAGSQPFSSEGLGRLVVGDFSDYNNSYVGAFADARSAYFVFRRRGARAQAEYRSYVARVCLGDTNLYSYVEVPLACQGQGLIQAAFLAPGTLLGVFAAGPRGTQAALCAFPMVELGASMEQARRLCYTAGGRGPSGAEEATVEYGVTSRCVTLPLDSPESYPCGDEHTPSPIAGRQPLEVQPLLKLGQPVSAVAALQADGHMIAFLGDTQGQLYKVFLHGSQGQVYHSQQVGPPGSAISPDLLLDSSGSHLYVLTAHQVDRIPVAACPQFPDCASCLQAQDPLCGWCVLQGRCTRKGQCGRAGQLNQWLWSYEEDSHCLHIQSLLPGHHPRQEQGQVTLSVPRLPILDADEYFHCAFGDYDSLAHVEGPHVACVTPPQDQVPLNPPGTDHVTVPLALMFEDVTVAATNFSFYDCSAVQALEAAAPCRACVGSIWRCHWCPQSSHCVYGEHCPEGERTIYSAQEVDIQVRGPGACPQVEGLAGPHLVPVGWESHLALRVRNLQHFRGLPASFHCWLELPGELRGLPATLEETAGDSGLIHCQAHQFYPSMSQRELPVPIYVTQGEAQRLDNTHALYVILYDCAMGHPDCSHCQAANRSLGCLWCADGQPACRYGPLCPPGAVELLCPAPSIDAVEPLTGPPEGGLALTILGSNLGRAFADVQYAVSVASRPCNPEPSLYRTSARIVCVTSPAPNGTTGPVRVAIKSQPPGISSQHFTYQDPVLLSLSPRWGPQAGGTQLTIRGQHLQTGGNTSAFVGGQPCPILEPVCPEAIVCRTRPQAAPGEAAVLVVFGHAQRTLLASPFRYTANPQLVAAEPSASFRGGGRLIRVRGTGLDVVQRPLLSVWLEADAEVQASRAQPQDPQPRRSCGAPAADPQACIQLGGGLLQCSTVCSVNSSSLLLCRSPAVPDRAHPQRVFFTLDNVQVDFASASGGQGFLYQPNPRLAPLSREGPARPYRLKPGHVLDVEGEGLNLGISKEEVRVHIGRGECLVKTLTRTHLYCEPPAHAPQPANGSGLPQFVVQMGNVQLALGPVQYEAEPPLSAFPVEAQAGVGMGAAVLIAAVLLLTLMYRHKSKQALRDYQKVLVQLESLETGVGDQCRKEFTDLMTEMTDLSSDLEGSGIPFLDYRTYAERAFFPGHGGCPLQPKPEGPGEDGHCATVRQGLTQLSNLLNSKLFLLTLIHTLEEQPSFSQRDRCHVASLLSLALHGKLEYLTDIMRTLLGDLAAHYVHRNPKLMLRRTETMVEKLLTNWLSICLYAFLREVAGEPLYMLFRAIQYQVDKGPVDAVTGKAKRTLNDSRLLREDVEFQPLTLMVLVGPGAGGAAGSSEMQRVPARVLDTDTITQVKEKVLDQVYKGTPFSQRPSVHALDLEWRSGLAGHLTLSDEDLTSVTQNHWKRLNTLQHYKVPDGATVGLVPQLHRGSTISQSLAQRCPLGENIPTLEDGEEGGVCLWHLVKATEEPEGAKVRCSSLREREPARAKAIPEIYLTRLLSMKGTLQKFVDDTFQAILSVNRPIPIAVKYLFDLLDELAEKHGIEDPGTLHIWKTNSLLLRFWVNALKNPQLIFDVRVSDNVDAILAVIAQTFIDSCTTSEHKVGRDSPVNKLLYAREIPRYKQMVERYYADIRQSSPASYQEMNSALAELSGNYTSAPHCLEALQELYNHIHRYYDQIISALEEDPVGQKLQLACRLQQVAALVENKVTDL
HA-tagged plexin-B3 cytoplasmic domain (plexin-B3-cyto): residues 1277-1909 of Q9ULL4
UniProt P62834: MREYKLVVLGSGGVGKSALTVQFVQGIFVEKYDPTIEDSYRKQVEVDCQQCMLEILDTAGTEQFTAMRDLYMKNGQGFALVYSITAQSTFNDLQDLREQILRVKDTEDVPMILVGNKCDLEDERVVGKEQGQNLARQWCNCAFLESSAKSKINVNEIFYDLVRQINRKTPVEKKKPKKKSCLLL
UniProt P31946: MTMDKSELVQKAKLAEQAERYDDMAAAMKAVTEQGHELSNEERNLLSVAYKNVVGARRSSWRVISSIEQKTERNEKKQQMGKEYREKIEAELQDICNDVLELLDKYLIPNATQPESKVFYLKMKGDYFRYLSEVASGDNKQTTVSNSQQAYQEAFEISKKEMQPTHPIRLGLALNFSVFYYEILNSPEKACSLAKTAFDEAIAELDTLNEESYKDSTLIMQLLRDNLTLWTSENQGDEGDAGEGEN
UniProt P61224: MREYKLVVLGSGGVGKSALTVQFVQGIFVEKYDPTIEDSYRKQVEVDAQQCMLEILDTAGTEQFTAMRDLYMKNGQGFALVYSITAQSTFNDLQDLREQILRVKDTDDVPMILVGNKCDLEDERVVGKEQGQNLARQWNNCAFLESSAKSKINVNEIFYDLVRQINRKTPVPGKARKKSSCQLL

Tests used:
[1] = biological target: full-length VSV-tagged plexin-B1 (UniProt O43157); test: co-IP; lysates of COS7 cells co-expressing plexin-B constructs and myc-R-Ras, GFP–Rap1A or HA–Rap1B; immunoprecipitated and western blotted with the indicated antibodies (not given)
[2] = biological target: full-length VSV-tagged plexin-B3 (UniProt Q9ULL4); test: as above
FLAG–Rnd3 = biological target: T1, FLAG–Rnd3 (UniProt P61588); test: co-IP; lysates of co-transfected COS7 cells (20 mM Tris-HCl pH 8, 130 mM NaCl, 1% Triton X-100); anti-FLAG or anti-HA antibody on agarose beads, 2 h at 4°C; immunoblotting
T1 sequence: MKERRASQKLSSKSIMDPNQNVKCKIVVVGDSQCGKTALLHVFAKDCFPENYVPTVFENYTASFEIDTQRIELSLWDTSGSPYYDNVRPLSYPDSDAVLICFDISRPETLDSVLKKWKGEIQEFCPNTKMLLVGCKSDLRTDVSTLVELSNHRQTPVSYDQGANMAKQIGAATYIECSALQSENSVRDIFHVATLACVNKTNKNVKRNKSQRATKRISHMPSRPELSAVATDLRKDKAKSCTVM

FLAG–Rnd2 = biological target: T2, FLAG–Rnd2 (UniProt P52198); test: as above
T2 sequence: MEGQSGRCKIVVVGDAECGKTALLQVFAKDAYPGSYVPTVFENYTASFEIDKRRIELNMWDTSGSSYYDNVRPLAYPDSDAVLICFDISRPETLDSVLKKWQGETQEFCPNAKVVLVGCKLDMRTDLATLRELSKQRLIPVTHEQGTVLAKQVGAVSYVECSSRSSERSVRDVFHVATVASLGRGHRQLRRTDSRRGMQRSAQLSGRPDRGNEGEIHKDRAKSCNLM

FLAG–Rnd1 = biological target: T3, FLAG–Rnd1 (UniProt Q92730); test: as above
T3 sequence: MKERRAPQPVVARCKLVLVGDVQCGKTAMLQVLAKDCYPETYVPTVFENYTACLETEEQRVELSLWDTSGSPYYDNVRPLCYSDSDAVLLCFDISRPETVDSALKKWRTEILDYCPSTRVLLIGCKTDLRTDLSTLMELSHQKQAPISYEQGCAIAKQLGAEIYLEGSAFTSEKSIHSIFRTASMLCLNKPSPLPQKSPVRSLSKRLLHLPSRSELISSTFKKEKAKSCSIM

[3] = biological target: T4, recombinant glutathione S-transferase (GST)-tagged Rnd3 (UniProt P61588); test: pull-down; GST or GST–Rnd3 on glutathione–Sepharose beads incubated 2 h at 4°C with lysates of transfected COS7 cells (1% Triton X-100, 20 mM Tris-HCl pH 8, 130 mM NaCl); immunoblotting; only the target purified
T4 sequence: T1 sequence

[4] = biological target: HA-tagged plexin-B1 cytoplasmic domain (plexin-B1-cyto) (human) (UniProt O43157); test: co-IP; lysates of co-transfected COS7 cells (20 mM Tris-HCl pH 8, 130 mM NaCl, 1% Triton X-100); anti-FLAG or anti-HA antibody on agarose beads, 2 h at 4°C; immunoblotting
[5] = biological target: HA-tagged plexin-B3 cytoplasmic domain (plexin-B3-cyto) (human) (UniProt Q9ULL4); test: as above

Molecule: GFP–Rap1A (from UniProt P62834 1-184)
binding [1]: binds
binding [2]: binds

binding (FLAG–Rnd3): binds
Molecule: HA–14-3-3β (from UniProt P31946 1-246)

Molecule: HA–Rap1B (from UniProt P61224 1-184)
binding [1]: binds
binding [2]: binds

Molecule: full-length VSV-tagged plexin-B1 (from UniProt O43157 20-2135) (receptor)
binding (FLAG–Rnd2): binds
binding (FLAG–Rnd3): binds weakly
binding (FLAG–Rnd1): binds weakly
binding [3]: binds weakly

Molecule: full-length VSV-tagged plexin-B3 (from UniProt Q9ULL4 45-1909) (receptor)
binding (FLAG–Rnd2): binds
binding (FLAG–Rnd3): binds weakly
binding (FLAG–Rnd1): binds weakly
binding [3]: binds weakly

binding [4]: binds weakly
binding [5]: binds weakly
B1: FLAG–Rnd1 (protein, UniProt Q92730 1-232)
chain: T3 sequence

binding [4]: binds weakly
binding [5]: binds weakly
B2: FLAG–Rnd3 (protein, UniProt P61588 1-244)
chain: T1 sequence

binding [4]: binds
binding [5]: binds
B3: FLAG–Rnd2 (protein, UniProt P52198 1-227)
chain: T2 sequence

B4: myc-R-Ras (protein, UniProt P10301 1-218)
chain: MSSGAASGTGRGRPRGGGPGPGDPPPSETHKLVVVGGGGVGKSALTIQFIQSYFVSDYDPTIEDSYTKICSVDGIPARLDILDTAGQEEFGAMREQYMRAGHGFLLVFAINDRQSFNEVGKLFTQILRVKDRDDFPVVLVGNKADLESQRQVPRSEASAFGASHHVAYFEASAKLRLNVDEAFEQLVRAVRKYQEQELPPSPPSAPRKKGGGCPCVLL
binding [1]: binds
binding [2]: binds
